# Measured values reported in PubChem BioAssay AID504313 (Emory University Molecular Libraries Screening Center, 2011).
# Amino acid sequences for entries named in this document (tags omitted). A change or cut given only in a name is not applied to a line headed by its entry.
# UniProt P17861: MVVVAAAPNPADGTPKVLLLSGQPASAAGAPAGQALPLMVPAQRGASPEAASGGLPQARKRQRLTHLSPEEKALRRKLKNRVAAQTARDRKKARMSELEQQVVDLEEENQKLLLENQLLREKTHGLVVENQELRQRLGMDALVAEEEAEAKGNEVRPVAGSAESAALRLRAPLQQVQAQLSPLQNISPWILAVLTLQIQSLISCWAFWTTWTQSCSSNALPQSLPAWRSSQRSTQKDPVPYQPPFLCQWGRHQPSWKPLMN
# The source made the active and inactive calls. No rule for the calls is given here.
# Biological target: X-box-binding protein 1 (Homo sapiens) (UniProt P17861)
# Assay: inhibitors of XBP1 reporter signal, dose response, counter-screen, cell-based (AID 504313);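 also: CHO cells carrying an XBP1 reporter stimulated with tunicamycin; potency is for inhibition of the tunicamycin-induced reporter signal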
# Settings: XBP1 reporter cell assay, percent of control
row,IC50,SMILES
1,inactive: > 10 µM,COc1ccc2[nH]c3c(C)c4ccncc4c(C)c3c2c1
2,inactive: > 10 µM,COc1cc(CN2CCc3ccccc3C2)ccc1O
3,inactive,CC(C)(C)C1CCC2(CC1)C(C#N)=C(SCC(=O)Nc1ccccc1)NC(=O)C2C#N (stereo not drawn)
